39 sequences from PMC7862700 can be followed below.

By UniProt entry, the sequences of proteins in these tests, tags left out. Where a name states a change or a piece, a line headed by the entry shows the natural chain unless it says otherwise.
UniProt P41212: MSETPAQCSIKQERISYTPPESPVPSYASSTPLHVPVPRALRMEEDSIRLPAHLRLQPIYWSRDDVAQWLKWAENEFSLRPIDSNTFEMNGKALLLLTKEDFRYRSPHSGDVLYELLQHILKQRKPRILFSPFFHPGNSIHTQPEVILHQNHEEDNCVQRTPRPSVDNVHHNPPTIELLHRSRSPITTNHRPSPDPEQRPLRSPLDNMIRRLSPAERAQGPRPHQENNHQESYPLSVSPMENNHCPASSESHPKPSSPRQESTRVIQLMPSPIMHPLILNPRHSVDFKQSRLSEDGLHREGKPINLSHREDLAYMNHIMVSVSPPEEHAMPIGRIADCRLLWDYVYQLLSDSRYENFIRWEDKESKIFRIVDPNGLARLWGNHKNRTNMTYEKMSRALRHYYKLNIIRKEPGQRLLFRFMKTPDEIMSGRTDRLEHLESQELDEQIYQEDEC

Only a part is listed here, and it is no random draw. At the low end of the ranking the order means little.

The test has as its target ETV6 (UniProt P41212). As to the kind of experiment: DAPPL (digital affinity profiling via proximity ligation, sequencing). The following applies: 10 mM Tris-HCl pH 7.5, 50 mM NaCl, 1 mM DTT, 4% glycerol, room temperature, 30 min; GST-TFs on glutathione beads, 16-mer random dsDNA library, 0.1% …; high values mean tight binding; double strand, one strand shown; scale: fold enrichment (6-mer frequency, TF over GST control).
For the sequence CTCCTG, the binding signal turned out to be 1.59.

For the sequence CACTGG, the binding signal worked out at 1.04.

CGCGTC: the binding signal came out at 1.29.

CTCGTA displayed a binding signal of 1.2.

ATTTAC showed a binding signal of 1.18.

The sequence AAATCC registered a binding signal of 1.6.

The sequence CTATGA displayed a binding signal of 0.963.

On to CCAATG, for which the binding signal was 1.14.

With TTTCGA, the binding signal worked out at 1.33.

The sequence TCTAGT came in with a binding signal of 1.12.

Consider CTGGAT, for which the binding signal turned out to be 1.21.

The sequence TCCTCA showed a binding signal of 1.54.

In turn, TGCGCT showed a binding signal of 1.24.

Sequence AGGTAT yielded a binding signal of 1.01.

CCTACA: the binding signal stood at 1.29.

In the case of GTTCAT, the binding signal worked out at 1.17.

For TGGTTC, the binding signal came to 1.32.

As to CCATTG, the binding signal stood at 1.12.

For TCGCAC, the binding signal came out at 0.969.

Consider ATCTGA, for which the binding signal is 1.13.

Regarding ACAAGC, the binding signal was 1.09.

Turning to TGGTTA, the binding signal was 1.1.

On to TTATGT, for which the binding signal is 1.43.

Turning to CTTGGG, the binding signal is 1.23.

CACTTG yielded a binding signal of 1.31.

As for ATATAC, the binding signal amounted to 1.19.

The sequence CCTATC registered a binding signal of 1.12.

As to TAAATA, the binding signal turned out to be 1.32.

For the sequence GTATGC, the binding signal turned out to be 1.09.

Take ATTGAT: the binding signal turned out to be 1.24.

Regarding TGGTAG, the binding signal is 0.961.

Turning to CATGCT, the binding signal came to 1.28.

The sequence CTCCGG gave a binding signal of 1.56.

TTAAAA showed a binding signal of 1.19.

With CCATTT, the binding signal came to 1.34.

TTCATC came in with a binding signal of 1.23.

CGATTC had a binding signal of 1.11.

For the sequence CTTTAA, the binding signal was 1.23.

On to TCACAG, for which the binding signal turned out to be 1.11.
